± gives the standard error. Many of these values have a large error.
B1: glmS ribozyme (parent)
chain: AUAAAAGCGCCAGAACUACAGAAAUGUAGUUGACGAGGAGGAGGUUUAUCGAAUUUUCGGCGGAUGCCUCCAAA

Variants of: B1
Experiment: self-cleavage kobs at 2500 uM GlcN6P; higher = faster cleavage; RNA array
Conditions: with glucosamine-6-phosphate
How it was run: (§1)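 Tiles of sequenced MiSeq chips were imaged over ~14 h at 37 °C. On them, barcoded ribozyme variants had been transcribed in situ by E. coli RNA polymerase and were tracked via a hybridised Cy3 probe while glucosamine-6-phosphate (40 μM to 10 mM) in HEPES/KCl/Mg(OAc)2 buffer flowed in. Per-tile medians, normalised to baseline and to non-cleaving reference variants, were fit to one- or two-exponential decays for kobs, and weighted Michaelis–Menten fits gave kcat and KM.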

Variant	self-cleavage kobs at 2500 uM GlcN6P [s⁻¹]
AUAAAAGCGCCAGAACUACAGAAAUGUAGUUGACGAGGAGGAGGCUUAUCGAAUUUUCGGCGGAUGCCGCCAAA [U45C U69G]	3.47e-05 ± 1.8e-05
AUAAAAGCGCCAGAACUACAGAAAUGUAGUUGACGAGGAGGAGGGUUAUCGAAUUUUCGGCGGUUGCCUCCAAA [U45G A64U]	3.67e-05 ± 2e-05
AUAAAAGCGCCAGAACUACAGAAAUGUAGUUGACGAGGAGGAGGGAUAUCGAAUUUUCGGCGGAUGCCUCCAAA [U45G U46A]	0.00288 ± 0.0015
AUAAAAGCGCCAGAACUACAGAAAUGUAGUUGACGAGGAGGAGGGUUAUCGAAUUUUCGGCGGAUGCCCCCAAA [U45G U69C]	0.0334 ± 0.026
AUAAAAGCGCCAGAACUACAGAAAUGUAGUUGACGAGGAGGAGGUGUAUCGAAUUUUGGGCGGAUGCCUCCAAA [U46G C58G]	2.02e-05 ± 1.2e-05
AUAAAAGCGCCAGAACUACAGAAAUGUAGUUGACGAGGAGGAGGUUAAUCGAAUUUUCGGUGGAUGCCUCCAAA [U47A C61U]	2.23e-05 ± 1.5e-05
AUAAAAGCGCCAGAACUACAGAAAUGUAGUUGACGAGGAGGAGGUUCAUCGAGUUUUGGGCGGAUGCCUACAAA [U47C A53G C58G C70A]	2.91e-05 ± 2.8e-05
AUAAAAGCGCCAGAACUACAGAAAUGUAGUUGACGAGGAGGAGGUUCAUCGAAUCUUCGGCGGAUGCCUGCAAA [U47C U55C C70G]	2.81e-05 ± 2.5e-05
AUAAAAGCGCCAGAACUACAGAAAUGUAGUUGACGAGGAGGAGGUUCAUCGAAUUUGCGGCGGAUGCCUCCAAA [U47C U57G]	2.37e-05 ± 2.1e-05
AUAAAAGCGCCAGAACUACAGAAAUGUAGUUGACGAGGAGGAGGUUGAUCGUAUUUUCGGCGGAUGCGUCCAAA [U47G A52U C68G]	4.51e-05 ± 3e-05
AUAAAAGCGCCAGAACUACAGAAAUGUAGUUGACGAGGAGGAGGUUGAUCGAAUUUUCGGCGGUUGCCUCCAAA [U47G A64U]	3.2e-05 ± 2.2e-05
AUAAAAGCGCCAGAACUACAGAAAUGUAGUUGACGAGGAGGAGGUUGAUCGAAUUUUCGGUGGAUGCCUCCAAA [U47G C61U]	2.53e-05 ± 1.3e-05
AUAAAAGCGCCAGAACUACAGAAAUGUAGUUGACGAGGAGGAGGUUGAUCGAAUUGUCGGUGGAUGGCUUCAAA [U47G U56G C61U C67G C70U]	6.53e-05 ± 3.8e-05
AUAAAAGCGCCAGAACUACAGAAAUGUAGUUGACGAGGAGGAGGUUGAUCGAAUUUGCGGCGGGUGCCUCCAAA [U47G U57G A64G]	2.12e-05 ± 1.9e-05
AUAAAAGCGCCAGAACUACAGAAAUGUAGUUGACGAGGAGGAGGUUUCUCGAAUUUUCGGCGGGUGCCUCCAAA [A48C A64G]	1.83e-05 ± 1.2e-05
AUAAAAGCGCCAGAACUACAGAAAUGUAGUUGACGAGGAGGAGGUUUGUCGAAUUCUCGGCGGAUGCCUCCAAA [A48G U56C]	2.11e-05 ± 1.4e-05

Variant	self-cleavage kobs at 2500 uM GlcN6P [s⁻¹]
AUAAAAGCGCCAGAACUACAGAAAUGUAGUUGACGAGGAGGAGGUUUUGCGAAUUUUCGGCGGAUGCCUCCAAA [A48U U49G]	2.4e-05 ± 1.6e-05
AUAAAAGCGCCAGAACUACAGAAAUGUAGUUGACGAGGAGGAGGUUUAACGAAUUUUCGGCGGAUGCCUCUAAA [U49A C71U]	2.1e-05 ± 2e-05
AUAAAAGCGCCAGAACUACAGAAAUGUAGUUGACGAGGAGGAGGUUUAACGAAAUUUCGGCGGAUGCCUGCAAA [U49A U54A C70G]	0.00156 ± 0.0014
AUAAAAGCGCCAGAACUACAGAAAUGUAGUUGACGAGGAGGAGGUUUAGUGAAUUUUCGGCGGAUUCCUUCAAA [U49G C50U G66U C70U]	5.04e-05 ± 3.4e-05
AUAAAAGCGCCAGAACUACAGAAAUGUAGUUGACGAGGAGGAGGUUUAGCGAAUUUUCGGCGGAUGCCUACAAA [U49G C70A]	1.79e-05 ± 1.1e-05
AUAAAAGCGCCAGAACUACAGAAAUGUAGUUGACGAGGAGGAGGUUUAGCAAAUUUUCGGCGGAUGCGUCCAAA [U49G G51A C68G]	5.65e-05 ± 4.1e-05
AUAAAAGCGCCAGAACUACAGAAAUGUAGUUGACGAGGAGGAGGUUUAGCUAAUUUUCGGCGGAUGCGUCCAAA [U49G G51U C68G]	4.42e-05 ± 2.5e-05
AUAAAAGCGCCAGAACUACAGAAAUGUAGUUGACGAGGAGGAGGUUUAUAGAAUUUUCGGGGGAUGCCUCCAAA [C50A C61G]	2.94e-05 ± 2.4e-05
AUAAAAGCGCCAGAACUACAGAAAUGUAGUUGACGAGGAGGAGGUUUAUAGAAUUUUCGGCGGAUGCUUCCAAA [C50A C68U]	2.44e-05 ± 1.5e-05
AUAAAAGCGCCAGAACUACAGAAAUGUAGUUGACGAGGAGGAGGUUUAUAGAAUUUUCGGCGGAUGCCUCUAAA [C50A C71U]	1.58e-05 ± 9.5e-06
AUAAAAGCGCCAGAACUACAGAAAUGUAGUUGACGAGGAGGAGGUUUAUGGAAUUUUCGGUGGGUGCCUCCAAA [C50G C61U A64G]	5.74e-05 ± 3.3e-05
AUAAAAGCGCCAGAACUACAGAAAUGUAGUUGACGAGGAGGAGGUUUAUGGAAUUUUCGGCCGAUGCCUCCAAA [C50G G62C]	3.19e-05 ± 1.9e-05
AUAAAAGCGCCAGAACUACAGAAAUGUAGUUGACGAGGAGGAGGUUUAUGGAAUUUUCGGCUGAUGCCUCCAAA [C50G G62U]	2.67e-05 ± 1.7e-05
AUAAAAGCGCCAGAACUACAGAAAUGUAGUUGACGAGGAGGAGGUUUAUGGAAUGAUCGGCGGAUGGCUCCAAA [C50G U55G U56A C67G]	3.92e-05 ± 2.1e-05
AUAAAAGCGCCAGAACUACAGAAAUGUAGUUGACGAGGAGGAGGUUUAUGGAAUUUGCGGCGGAUGCCUCCAAA [C50G U57G]	5.27e-05 ± 2.7e-05

Variants of: B1
Experiment: self-cleavage kobs at 10000 uM GlcN6P; higher = faster cleavage; RNA array
Conditions: with glucosamine-6-phosphate
How it was run: as §1

Variant	self-cleavage kobs at 10000 uM GlcN6P [s⁻¹]
AUAAAAGCGCCAGAACUACAGAAAUGUAGUUGACGAGGAGGAGGUUCAUCGAAUUUGCGGCGGAUGCCUCCAAA [U47C U57G]	2.28e-05 ± 1.3e-05
AUAAAAGCGCCAGAACUACAGAAAUGUAGUUGACGAGGAGGAGGUUGAUCGAAUUUUCGGCGGUUGCCUCCAAA [U47G A64U]	2.73e-05 ± 1.4e-05
AUAAAAGCGCCAGAACUACAGAAAUGUAGUUGACGAGGAGGAGGUUGAUCGAAUUUUCGGUGGAUGCCUCCAAA [U47G C61U]	1.54e-05 ± 1.3e-05
AUAAAAGCGCCAGAACUACAGAAAUGUAGUUGACGAGGAGGAGGUUUUGCGAAUUUUCGGCGGAUGCCUCCAAA [A48U U49G]	1.21e-05 ± 1.1e-05
AUAAAAGCGCCAGAACUACAGAAAUGUAGUUGACGAGGAGGAGGUUUAUAGAAUUUUCGGCGGAUGCUUCCAAA [C50A C68U]	1.25e-05 ± 1.1e-05
AUAAAAGCGCCAGAACUACAGAAAUGUAGUUGACGAGGAGGAGGUUUAUGGAAUUUGCGGCGGAUGCCUCCAAA [C50G U57G]	3.92e-05 ± 2.3e-05

2 entries from above, bar-delimited.
Variant | self-cleavage kobs at 10000 uM GlcN6P [s⁻¹]
AUAAAAGCGCCAGAACUACAGAAAUGUAGUUGACGAGGAGGAGGUUCAUCGAAUUUGCGGCGGAUGCCUCCAAA [U47C U57G] | 2.28e-05 ± 1.3e-05
AUAAAAGCGCCAGAACUACAGAAAUGUAGUUGACGAGGAGGAGGUUUUGCGAAUUUUCGGCGGAUGCCUCCAAA [A48U U49G] | 1.21e-05 ± 1.1e-05

Reference: the supplement of paper PMC7125110
